The text below walks through data of doi:10.1101/2020.12.09.417287.

Sequences of proteins named here, by UniProt entry; tags and fusion partners are left off. Residues count along the entry.
UniProt P28331, residues 24-727: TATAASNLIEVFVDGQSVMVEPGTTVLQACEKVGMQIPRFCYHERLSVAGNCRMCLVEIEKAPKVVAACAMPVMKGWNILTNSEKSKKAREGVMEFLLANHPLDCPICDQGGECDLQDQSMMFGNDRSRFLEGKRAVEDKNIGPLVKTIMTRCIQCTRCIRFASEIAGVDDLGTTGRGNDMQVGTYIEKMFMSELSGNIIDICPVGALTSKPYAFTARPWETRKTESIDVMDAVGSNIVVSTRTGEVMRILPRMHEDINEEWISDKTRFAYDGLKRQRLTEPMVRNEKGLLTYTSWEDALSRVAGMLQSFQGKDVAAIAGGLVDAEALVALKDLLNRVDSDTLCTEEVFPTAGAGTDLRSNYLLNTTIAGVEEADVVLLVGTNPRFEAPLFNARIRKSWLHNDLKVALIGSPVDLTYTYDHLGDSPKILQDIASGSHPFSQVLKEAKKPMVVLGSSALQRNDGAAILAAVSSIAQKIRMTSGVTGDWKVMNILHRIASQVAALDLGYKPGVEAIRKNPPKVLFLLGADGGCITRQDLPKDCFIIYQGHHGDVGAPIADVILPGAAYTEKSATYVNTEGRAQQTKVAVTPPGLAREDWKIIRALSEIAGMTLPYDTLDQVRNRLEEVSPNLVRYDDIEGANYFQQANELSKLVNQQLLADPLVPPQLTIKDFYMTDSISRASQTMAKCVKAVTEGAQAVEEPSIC
UniProt P47985, residues 79-274: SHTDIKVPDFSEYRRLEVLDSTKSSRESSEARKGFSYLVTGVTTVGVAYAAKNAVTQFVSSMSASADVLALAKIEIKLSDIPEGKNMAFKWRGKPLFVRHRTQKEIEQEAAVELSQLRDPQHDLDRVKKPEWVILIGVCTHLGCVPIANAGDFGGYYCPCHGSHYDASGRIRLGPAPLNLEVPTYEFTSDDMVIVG

For this assay, the target named is T1, Ovarian carcinoma immunoreactive antigen-like protein 2 (OCIAD2) with an N-terminal FLAG-tag (human) (UniProt Q56VL3).
T1 sequence: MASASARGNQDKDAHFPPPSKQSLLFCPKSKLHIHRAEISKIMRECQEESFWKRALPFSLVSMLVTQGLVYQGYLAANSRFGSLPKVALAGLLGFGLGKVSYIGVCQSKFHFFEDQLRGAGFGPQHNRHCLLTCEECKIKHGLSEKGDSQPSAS
Description: co-IP.

These are yes or no findings as the source states them, for the method shown. Binding seen in cells or lysates may run through a third protein. Some binding calls cover weakened binding; strength is not graded here. Sequences can lack the tags named with a protein.

Turning to NDUFS1 (from UniProt P28331 24-727), the binding result is recorded as “binds”. To “Rieske protein (UQCRFS1) (from UniProt P47985 79-274)” belongs “binds”.
